Measurements published in the supplement of paper PMC12067093, “Discovery and optimisation of a covalent ligand for TRIM25 and its application to targeted protein ubiquitination” (Chemical Science, 2025).
The other results are listed elsewhere or left out.

The chains behind the UniProt entries cited, without tags or fusion partners. Where a name states a change or a piece, a line headed by the entry shows the natural chain unless it says otherwise.
UniProt Q9Y2L1: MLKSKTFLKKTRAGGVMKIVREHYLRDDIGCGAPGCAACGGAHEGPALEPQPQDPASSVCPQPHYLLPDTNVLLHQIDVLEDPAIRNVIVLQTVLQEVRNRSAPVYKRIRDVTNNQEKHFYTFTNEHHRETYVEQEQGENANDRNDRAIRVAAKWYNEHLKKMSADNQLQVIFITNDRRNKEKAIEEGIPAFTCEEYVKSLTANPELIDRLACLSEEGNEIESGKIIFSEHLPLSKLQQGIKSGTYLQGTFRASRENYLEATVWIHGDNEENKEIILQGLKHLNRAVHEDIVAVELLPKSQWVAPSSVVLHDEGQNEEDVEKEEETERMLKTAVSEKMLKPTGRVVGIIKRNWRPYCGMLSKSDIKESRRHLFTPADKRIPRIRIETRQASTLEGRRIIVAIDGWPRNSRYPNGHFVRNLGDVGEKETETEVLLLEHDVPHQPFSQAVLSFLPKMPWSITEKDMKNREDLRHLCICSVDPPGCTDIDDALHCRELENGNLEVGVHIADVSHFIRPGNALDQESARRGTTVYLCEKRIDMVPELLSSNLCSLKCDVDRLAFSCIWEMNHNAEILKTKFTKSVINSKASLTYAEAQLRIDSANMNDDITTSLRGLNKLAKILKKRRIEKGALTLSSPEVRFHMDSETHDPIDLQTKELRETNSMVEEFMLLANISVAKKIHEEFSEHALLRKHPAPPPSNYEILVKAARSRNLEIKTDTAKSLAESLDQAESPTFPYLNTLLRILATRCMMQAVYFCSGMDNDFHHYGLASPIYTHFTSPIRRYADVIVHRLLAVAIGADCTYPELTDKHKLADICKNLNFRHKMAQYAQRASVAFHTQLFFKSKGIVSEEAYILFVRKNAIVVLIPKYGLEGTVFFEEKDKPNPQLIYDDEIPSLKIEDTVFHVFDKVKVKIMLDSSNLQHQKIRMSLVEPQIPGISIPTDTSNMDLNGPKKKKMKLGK
UniProt O75165, whole entry, looked up: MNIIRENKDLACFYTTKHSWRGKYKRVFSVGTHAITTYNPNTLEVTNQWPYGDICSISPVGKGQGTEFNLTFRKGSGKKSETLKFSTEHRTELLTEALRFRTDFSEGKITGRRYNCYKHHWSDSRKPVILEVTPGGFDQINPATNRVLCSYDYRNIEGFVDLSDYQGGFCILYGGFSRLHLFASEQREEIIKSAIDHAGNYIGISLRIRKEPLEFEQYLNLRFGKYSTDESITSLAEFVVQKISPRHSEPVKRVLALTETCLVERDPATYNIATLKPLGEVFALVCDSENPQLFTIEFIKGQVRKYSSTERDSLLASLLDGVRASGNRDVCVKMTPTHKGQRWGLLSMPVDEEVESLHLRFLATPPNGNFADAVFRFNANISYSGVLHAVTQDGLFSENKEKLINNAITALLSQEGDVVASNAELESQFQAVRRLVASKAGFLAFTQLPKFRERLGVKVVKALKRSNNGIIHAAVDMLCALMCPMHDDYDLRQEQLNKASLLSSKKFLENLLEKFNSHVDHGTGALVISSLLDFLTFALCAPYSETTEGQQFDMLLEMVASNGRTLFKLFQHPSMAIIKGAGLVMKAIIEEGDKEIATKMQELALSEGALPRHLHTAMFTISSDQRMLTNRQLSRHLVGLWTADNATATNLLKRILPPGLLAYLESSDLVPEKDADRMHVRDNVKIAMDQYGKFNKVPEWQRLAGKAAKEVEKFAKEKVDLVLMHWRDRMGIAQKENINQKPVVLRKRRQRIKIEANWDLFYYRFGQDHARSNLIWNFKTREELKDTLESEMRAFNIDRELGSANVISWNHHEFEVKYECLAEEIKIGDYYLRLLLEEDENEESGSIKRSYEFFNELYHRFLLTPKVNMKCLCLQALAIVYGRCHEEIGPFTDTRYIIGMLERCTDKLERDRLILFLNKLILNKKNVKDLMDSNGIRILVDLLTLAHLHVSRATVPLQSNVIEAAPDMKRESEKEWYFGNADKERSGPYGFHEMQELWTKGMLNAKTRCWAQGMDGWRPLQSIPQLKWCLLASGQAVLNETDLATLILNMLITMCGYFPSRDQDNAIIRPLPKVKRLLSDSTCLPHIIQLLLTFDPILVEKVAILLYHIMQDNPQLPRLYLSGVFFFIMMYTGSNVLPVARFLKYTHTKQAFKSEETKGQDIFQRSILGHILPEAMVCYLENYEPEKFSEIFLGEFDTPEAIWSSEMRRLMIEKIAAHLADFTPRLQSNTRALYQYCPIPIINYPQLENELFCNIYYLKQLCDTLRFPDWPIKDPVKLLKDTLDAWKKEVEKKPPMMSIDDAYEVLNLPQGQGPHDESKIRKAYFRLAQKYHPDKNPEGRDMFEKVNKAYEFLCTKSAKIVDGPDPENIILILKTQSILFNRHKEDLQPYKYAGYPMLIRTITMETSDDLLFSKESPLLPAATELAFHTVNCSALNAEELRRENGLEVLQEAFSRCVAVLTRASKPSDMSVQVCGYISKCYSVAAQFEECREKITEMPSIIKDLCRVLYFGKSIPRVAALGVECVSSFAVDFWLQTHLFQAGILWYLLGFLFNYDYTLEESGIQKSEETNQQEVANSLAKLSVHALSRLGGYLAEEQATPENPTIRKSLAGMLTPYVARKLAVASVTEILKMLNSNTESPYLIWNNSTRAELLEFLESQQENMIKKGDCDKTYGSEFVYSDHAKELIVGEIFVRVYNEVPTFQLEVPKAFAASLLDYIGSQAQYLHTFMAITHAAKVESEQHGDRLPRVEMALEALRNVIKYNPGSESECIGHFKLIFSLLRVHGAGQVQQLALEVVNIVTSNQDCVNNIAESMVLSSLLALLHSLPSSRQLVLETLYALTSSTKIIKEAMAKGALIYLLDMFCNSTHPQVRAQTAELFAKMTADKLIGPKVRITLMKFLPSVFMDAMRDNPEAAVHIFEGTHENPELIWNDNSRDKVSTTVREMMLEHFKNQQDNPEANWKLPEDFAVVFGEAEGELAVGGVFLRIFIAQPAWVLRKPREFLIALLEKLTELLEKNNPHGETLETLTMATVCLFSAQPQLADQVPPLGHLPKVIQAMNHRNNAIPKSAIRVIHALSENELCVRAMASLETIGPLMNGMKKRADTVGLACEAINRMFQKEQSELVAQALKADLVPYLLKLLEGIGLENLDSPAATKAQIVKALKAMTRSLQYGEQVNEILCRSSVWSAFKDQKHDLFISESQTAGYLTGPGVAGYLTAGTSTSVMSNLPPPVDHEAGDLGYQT
UniProt Q9H6R0: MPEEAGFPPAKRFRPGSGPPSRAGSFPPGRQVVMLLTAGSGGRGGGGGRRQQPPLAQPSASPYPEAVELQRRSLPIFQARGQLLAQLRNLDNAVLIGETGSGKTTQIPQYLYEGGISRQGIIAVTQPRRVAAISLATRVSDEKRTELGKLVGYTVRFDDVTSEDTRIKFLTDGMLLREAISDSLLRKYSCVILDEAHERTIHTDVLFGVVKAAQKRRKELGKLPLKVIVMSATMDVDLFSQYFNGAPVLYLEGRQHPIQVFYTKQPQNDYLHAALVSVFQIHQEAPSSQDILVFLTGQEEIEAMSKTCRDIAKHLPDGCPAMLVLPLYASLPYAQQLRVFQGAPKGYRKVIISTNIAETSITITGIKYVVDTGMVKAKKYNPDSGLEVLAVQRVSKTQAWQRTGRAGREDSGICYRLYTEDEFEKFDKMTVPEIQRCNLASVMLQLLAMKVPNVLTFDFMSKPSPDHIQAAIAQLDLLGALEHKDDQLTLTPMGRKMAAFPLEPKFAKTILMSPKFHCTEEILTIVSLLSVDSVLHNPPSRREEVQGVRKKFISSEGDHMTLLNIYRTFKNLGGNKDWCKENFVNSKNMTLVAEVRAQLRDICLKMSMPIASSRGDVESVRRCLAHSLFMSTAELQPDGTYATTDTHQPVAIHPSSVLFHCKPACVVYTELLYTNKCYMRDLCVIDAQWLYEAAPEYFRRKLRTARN
UniProt Q8IYB7: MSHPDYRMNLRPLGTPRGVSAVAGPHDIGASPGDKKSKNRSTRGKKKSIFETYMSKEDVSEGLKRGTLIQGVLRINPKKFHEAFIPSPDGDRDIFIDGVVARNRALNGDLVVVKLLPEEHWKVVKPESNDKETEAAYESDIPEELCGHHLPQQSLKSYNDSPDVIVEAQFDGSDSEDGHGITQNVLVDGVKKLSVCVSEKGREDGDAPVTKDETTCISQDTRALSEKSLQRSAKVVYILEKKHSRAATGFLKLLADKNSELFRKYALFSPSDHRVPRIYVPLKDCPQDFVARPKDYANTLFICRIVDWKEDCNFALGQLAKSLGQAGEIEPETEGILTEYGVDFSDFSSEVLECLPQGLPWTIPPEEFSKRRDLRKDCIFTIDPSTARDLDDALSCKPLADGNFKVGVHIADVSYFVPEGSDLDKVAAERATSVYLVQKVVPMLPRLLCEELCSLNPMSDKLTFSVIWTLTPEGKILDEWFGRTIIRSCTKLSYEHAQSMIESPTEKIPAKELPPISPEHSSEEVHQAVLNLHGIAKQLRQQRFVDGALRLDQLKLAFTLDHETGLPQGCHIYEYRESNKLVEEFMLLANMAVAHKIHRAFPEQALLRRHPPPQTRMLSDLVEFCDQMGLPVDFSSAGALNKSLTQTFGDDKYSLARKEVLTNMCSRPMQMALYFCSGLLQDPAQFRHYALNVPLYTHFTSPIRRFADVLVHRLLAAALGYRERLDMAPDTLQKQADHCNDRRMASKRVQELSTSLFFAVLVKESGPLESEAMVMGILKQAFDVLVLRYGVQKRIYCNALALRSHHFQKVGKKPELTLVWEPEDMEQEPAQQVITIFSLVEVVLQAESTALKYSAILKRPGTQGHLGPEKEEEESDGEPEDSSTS
UniProt Q6P158: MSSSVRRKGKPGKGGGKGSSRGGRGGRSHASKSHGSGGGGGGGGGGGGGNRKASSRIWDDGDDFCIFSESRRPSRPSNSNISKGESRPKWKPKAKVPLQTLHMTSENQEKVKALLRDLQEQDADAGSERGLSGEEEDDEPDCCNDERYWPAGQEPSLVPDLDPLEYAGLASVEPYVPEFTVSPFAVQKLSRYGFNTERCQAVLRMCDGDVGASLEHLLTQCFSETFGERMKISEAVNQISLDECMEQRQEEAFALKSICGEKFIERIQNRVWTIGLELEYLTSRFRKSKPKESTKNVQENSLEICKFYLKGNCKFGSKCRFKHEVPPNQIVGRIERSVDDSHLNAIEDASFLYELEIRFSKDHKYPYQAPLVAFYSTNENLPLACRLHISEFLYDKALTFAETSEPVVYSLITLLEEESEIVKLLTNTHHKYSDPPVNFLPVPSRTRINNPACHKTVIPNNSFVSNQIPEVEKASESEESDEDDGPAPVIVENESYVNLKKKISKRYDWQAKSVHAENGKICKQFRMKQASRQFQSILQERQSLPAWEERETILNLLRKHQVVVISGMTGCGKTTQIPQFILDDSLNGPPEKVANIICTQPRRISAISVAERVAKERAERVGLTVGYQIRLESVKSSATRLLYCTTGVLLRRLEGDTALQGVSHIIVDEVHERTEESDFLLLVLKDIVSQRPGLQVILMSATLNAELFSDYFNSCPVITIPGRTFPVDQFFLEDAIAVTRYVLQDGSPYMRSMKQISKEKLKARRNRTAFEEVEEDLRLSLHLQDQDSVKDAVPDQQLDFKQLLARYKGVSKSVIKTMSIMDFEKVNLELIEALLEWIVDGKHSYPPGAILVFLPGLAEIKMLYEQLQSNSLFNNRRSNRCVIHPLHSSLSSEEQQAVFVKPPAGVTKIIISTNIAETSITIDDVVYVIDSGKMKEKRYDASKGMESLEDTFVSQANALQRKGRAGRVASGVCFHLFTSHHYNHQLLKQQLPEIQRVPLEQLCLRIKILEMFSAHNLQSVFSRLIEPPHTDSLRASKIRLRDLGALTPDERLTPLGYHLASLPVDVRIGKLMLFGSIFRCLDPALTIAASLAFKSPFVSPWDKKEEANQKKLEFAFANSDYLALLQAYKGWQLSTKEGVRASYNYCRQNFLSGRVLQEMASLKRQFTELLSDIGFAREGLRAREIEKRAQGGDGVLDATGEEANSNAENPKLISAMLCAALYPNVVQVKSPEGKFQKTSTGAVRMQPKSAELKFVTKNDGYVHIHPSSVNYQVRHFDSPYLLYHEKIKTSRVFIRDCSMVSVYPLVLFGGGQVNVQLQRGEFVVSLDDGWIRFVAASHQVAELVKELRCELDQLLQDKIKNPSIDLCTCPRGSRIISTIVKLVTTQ
UniProt Q9NW81: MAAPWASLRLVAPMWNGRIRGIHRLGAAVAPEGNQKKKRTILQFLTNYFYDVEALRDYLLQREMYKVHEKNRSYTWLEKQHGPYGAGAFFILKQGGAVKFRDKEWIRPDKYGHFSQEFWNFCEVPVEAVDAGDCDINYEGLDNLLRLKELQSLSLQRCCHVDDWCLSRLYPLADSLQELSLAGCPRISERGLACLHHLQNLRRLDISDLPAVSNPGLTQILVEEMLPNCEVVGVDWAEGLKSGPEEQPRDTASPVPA

Compound: CC1Cc2ccccc2N1C(=O)C1CCCN(C1)C(=O)CCl (mixture of isomers) [TRIM25 ligand 11 (diastereomer mixture)]
Assay: probe-labelled cysteine peptide fold change vs DMSO (competition) (log2 fold change); higher = less target engagement (more negative = stronger competition)
Details: THP-1, incubation time: 4 h
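Further: competitive chemoproteomic profiling in live THP-1 cells with an iodoacetamide desthiobiotin (IA-DTB) probe, comparing probe-labelled peptide intensities in compound-treated cells against DMSO-treated controls.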

DIDO1_Q9BTC0_261+273_AAQDIKDEEPGDLGRPKPECEGYDPNALYCICR (UniProt Q9BTC0)
probe-labelled cysteine peptide fold change (10 µM): -0.11 | probe-labelled cysteine peptide fold change (50 µM): -0.0252

DIDO1_Q9BTC0_261_PKPECEGYDPNALYCICR (UniProt Q9BTC0)
probe-labelled cysteine peptide fold change (10 µM): 0.00316 | probe-labelled cysteine peptide fold change (50 µM): -0.0292

DHX15_O43143_226_FEDCSSAK (UniProt O43143)
probe-labelled cysteine peptide fold change (10 µM): -0.14 | probe-labelled cysteine peptide fold change (50 µM): -0.0805

DIS3_Q9Y2L1_799_LLAVAIGADCTYPELTDK (UniProt Q9Y2L1)
probe-labelled cysteine peptide fold change (10 µM): 0.0589 | probe-labelled cysteine peptide fold change (50 µM): 0.113

DHX9_Q08211_773_VRPGFCFHLCSR (UniProt Q08211)
probe-labelled cysteine peptide fold change (10 µM): 0.0368 | probe-labelled cysteine peptide fold change (50 µM): -0.252

DHX9_Q08211_612_DKDDDGGEDDDANCNLICGDEYGPETR (UniProt Q08211)
probe-labelled cysteine peptide fold change (10 µM): 0.218 | probe-labelled cysteine peptide fold change (50 µM): -0.286

DHX29_Q7Z478_1025_CNLGSPEDFLSK (UniProt Q7Z478)
probe-labelled cysteine peptide fold change (10 µM): -0.0291 | probe-labelled cysteine peptide fold change (50 µM): 0.144

DIAPH2_O60879_159_HECTLSSQEYVHELR (UniProt O60879)
probe-labelled cysteine peptide fold change (10 µM): 0.02 | probe-labelled cysteine peptide fold change (50 µM): -0.127

DNAJA1_P31689_261_RGEDLFMCMDIQLVEALCGFQKPISTLDNR (UniProt P31689)
probe-labelled cysteine peptide fold change (10 µM): -0.404 | probe-labelled cysteine peptide fold change (50 µM): -0.233

DNAJC13_O75165_1432_ESPLLPAATELAFHTVNCSALNAEELRR (UniProt O75165)
probe-labelled cysteine peptide fold change (10 µM): 0.188 | probe-labelled cysteine peptide fold change (50 µM): 0.0943

DIP2A_Q14689_543_ALTQACGYSEAETLTNVLDFKR (UniProt Q14689)
probe-labelled cysteine peptide fold change (10 µM): 0.205 | probe-labelled cysteine peptide fold change (50 µM): 0.286

DHX33_Q9H6R0_518_FHCTEEILTIVSLLSVDSVLHNPPSRR (UniProt Q9H6R0)
probe-labelled cysteine peptide fold change (10 µM): 0.0209 | probe-labelled cysteine peptide fold change (50 µM): -0.279

DHX9_Q08211_438_AAECNIVVTQPR (UniProt Q08211)
probe-labelled cysteine peptide fold change (10 µM): -0.00921 | probe-labelled cysteine peptide fold change (50 µM): 0.0105

DHX33_Q9H6R0_518_FHCTEEILTIVSLLSVDSVLHNPPSR (UniProt Q9H6R0)
probe-labelled cysteine peptide fold change (10 µM): -0.0585 | probe-labelled cysteine peptide fold change (50 µM): 0.00714

DNAJC11_Q9NVH1_38_LCMLYHPDK (UniProt Q9NVH1)
probe-labelled cysteine peptide fold change (10 µM): -0.095 | probe-labelled cysteine peptide fold change (50 µM): -0.0827

DNAJC13_O75165_1178_SILGHILPEAMVCYLENYEPEK (UniProt O75165)
probe-labelled cysteine peptide fold change (10 µM): 0.195 | probe-labelled cysteine peptide fold change (50 µM): -0.119

DHCR24_Q15392_499_LGCQDAFPEVYDK (UniProt Q15392)
probe-labelled cysteine peptide fold change (10 µM): -0.0156 | probe-labelled cysteine peptide fold change (50 µM): 0.0023

DMXL1_Q9Y485_2781_MFEWGHSQQITCFR (UniProt Q9Y485)
probe-labelled cysteine peptide fold change (10 µM): -0.132 | probe-labelled cysteine peptide fold change (50 µM): 0.0733

DIMT1_Q9UNQ2_150_CAILMFQR (UniProt Q9UNQ2)
probe-labelled cysteine peptide fold change (10 µM): -0.021 | probe-labelled cysteine peptide fold change (50 µM): 0.332

DIS3L2_Q8IYB7_396_DLDDALSCK (UniProt Q8IYB7)
probe-labelled cysteine peptide fold change (10 µM): 0.14 | probe-labelled cysteine peptide fold change (50 µM): 0.266

DLG4_P78352_562_FGSCVPHTTRPK (UniProt P78352)
probe-labelled cysteine peptide fold change (10 µM): 0.11 | probe-labelled cysteine peptide fold change (50 µM): -0.315

DNAJC13_O75165_2181_SLQYGEQVNEILCR (UniProt O75165)
probe-labelled cysteine peptide fold change (10 µM): -0.000235 | probe-labelled cysteine peptide fold change (50 µM): 0.0482

DIS3_Q9Y2L1_549_RIDMVPELLSSNLCSLK (UniProt Q9Y2L1)
probe-labelled cysteine peptide fold change (10 µM): -0.166 | probe-labelled cysteine peptide fold change (50 µM): 0.00785

DLST_P36957_104_AVGDTVAEDEVVCEIETDK (UniProt P36957)
probe-labelled cysteine peptide fold change (10 µM): 0.223 | probe-labelled cysteine peptide fold change (50 µM): 0.0825

DNAJC3_Q13217_248_ISTLYYQLGDHELSLSEVRECLK (UniProt Q13217)
probe-labelled cysteine peptide fold change (10 µM): -0.302 | probe-labelled cysteine peptide fold change (50 µM): -0.0891

DLGAP4_Q9Y2H0_736_SLPDCTPHPNSISIDAGPR (UniProt Q9Y2H0)
probe-labelled cysteine peptide fold change (10 µM): -0.125 | probe-labelled cysteine peptide fold change (50 µM): -0.39

DIS3L2_Q8IYB7_396_DLDDALSCKPLADGNFK (UniProt Q8IYB7)
probe-labelled cysteine peptide fold change (10 µM): 0.0449 | probe-labelled cysteine peptide fold change (50 µM): -0.0233

DHX57_Q6P158_881_CVIHPLHSSLSSEEQQAVFVKPPAGVTK (UniProt Q6P158)
probe-labelled cysteine peptide fold change (10 µM): 0.177 | probe-labelled cysteine peptide fold change (50 µM): -0.299

DHX38_Q92620_27_GDTSEDASIHRLEGTDLDCQVGGLICK (UniProt Q92620)
probe-labelled cysteine peptide fold change (10 µM): 0.00226 | probe-labelled cysteine peptide fold change (50 µM): -0.294

DHX36_Q9H2U1_234_ELVNLIDNHQVTVISGETGCGK (UniProt Q9H2U1)
probe-labelled cysteine peptide fold change (10 µM): 0.183 | probe-labelled cysteine peptide fold change (50 µM): 0.138

DMAC2_Q9NW81_194_GLACLHHLQNLR (UniProt Q9NW81)
probe-labelled cysteine peptide fold change (10 µM): -0.157 | probe-labelled cysteine peptide fold change (50 µM): -0.162

DHX16_O60231_37_CTSAEEFVQR (UniProt O60231)
probe-labelled cysteine peptide fold change (10 µM): 0.079 | probe-labelled cysteine peptide fold change (50 µM): 0.0168

DIP2A_Q14689_934_FLEGTLHPCNVLMCPHTCVTNLPK (UniProt Q14689)
probe-labelled cysteine peptide fold change (10 µM): 0.0229 | probe-labelled cysteine peptide fold change (50 µM): 0.0575

DHX57_Q6P158_453_INNPACHK (UniProt Q6P158)
probe-labelled cysteine peptide fold change (10 µM): 0.0948 | probe-labelled cysteine peptide fold change (50 µM): 0.0338

DIS3_Q9Y2L1_213_LACLSEEGNEIESGK (UniProt Q9Y2L1)
probe-labelled cysteine peptide fold change (10 µM): 0.0746 | probe-labelled cysteine peptide fold change (50 µM): 0.0489

DHX8_Q14562_670_ECLIDPDLTQYAIIMLDEAHER (UniProt Q14562)
probe-labelled cysteine peptide fold change (10 µM): -0.0271 | probe-labelled cysteine peptide fold change (50 µM): 0.0569

DNAAF5_Q86Y56_349_RPVLGCR (UniProt Q86Y56)
probe-labelled cysteine peptide fold change (10 µM): -0.0781 | probe-labelled cysteine peptide fold change (50 µM): -0.00168
